The supplement of paper PMC10849652
The list shows a part of the results.

Sequences of proteins named here, by UniProt entry; tags and fusion partners are left off. A change or cut given only in a name is not applied to a line headed by its entry.
UniProt Q8N4J0: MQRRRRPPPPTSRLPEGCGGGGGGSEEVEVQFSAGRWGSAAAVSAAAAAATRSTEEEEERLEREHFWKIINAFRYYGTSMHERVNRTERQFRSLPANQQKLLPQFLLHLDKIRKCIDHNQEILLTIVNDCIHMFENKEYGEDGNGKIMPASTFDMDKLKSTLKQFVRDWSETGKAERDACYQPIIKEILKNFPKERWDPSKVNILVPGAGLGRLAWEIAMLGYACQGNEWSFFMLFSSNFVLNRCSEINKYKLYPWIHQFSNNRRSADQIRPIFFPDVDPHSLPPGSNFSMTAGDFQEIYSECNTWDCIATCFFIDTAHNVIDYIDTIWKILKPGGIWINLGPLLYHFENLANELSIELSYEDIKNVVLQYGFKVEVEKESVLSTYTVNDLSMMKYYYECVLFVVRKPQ
UniProt O43439: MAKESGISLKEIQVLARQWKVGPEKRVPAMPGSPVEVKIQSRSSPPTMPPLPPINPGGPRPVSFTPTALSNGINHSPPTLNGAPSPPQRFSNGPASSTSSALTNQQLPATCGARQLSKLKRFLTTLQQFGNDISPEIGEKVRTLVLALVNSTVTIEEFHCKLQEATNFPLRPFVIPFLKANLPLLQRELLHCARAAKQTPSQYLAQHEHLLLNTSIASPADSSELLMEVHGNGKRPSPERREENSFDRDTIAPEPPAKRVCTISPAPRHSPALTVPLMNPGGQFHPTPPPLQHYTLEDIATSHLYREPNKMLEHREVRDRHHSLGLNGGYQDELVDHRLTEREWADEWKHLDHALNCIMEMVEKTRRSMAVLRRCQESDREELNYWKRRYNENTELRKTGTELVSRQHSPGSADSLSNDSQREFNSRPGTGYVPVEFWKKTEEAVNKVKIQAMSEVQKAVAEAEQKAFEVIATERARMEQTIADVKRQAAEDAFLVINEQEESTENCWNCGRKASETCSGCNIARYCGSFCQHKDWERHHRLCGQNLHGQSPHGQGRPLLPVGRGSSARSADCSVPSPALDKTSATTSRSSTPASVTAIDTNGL
UniProt Q99832: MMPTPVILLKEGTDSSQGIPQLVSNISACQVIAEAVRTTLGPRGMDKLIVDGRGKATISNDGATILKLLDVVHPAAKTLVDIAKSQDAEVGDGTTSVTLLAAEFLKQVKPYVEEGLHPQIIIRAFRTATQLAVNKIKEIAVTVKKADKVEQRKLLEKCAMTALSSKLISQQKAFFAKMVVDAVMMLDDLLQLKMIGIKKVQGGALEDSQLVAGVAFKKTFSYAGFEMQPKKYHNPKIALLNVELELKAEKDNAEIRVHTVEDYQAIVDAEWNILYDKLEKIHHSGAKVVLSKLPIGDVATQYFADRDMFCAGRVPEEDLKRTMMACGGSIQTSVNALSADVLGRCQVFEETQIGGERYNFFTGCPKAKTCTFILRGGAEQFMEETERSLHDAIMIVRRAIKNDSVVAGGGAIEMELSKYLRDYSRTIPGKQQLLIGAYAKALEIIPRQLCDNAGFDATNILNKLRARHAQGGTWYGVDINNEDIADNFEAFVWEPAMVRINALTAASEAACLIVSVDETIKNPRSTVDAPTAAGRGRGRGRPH
UniProt Q8IWP9: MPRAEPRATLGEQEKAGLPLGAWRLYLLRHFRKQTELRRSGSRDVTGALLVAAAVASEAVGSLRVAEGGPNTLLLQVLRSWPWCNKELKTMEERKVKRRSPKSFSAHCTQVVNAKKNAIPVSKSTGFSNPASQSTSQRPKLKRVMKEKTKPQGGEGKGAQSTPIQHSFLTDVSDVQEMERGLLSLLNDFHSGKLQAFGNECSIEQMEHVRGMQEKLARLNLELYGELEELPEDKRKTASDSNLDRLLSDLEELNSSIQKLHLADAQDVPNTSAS
UniProt Q4G0I0: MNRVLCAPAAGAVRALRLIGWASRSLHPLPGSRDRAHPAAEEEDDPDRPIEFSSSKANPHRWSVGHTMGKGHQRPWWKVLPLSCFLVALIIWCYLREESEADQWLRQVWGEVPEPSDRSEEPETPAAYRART
UniProt Q8WUD4: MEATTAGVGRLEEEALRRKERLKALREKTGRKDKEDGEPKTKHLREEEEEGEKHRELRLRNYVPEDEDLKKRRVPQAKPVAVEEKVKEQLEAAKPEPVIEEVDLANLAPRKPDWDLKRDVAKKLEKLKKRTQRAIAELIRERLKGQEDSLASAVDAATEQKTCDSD
UniProt P50991: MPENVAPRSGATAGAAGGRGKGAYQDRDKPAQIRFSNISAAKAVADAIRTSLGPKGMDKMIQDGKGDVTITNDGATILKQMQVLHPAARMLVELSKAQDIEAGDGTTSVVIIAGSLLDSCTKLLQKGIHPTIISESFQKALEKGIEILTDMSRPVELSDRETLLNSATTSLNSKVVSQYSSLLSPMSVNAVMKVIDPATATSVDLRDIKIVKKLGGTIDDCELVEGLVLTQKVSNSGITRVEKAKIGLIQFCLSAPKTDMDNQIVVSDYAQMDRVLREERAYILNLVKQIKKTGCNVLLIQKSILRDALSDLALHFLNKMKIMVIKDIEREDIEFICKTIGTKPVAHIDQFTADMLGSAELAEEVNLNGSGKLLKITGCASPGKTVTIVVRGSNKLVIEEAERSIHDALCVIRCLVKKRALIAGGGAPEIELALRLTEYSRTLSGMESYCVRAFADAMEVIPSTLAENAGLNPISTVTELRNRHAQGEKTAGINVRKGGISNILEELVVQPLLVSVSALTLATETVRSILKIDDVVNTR
UniProt Q75N03: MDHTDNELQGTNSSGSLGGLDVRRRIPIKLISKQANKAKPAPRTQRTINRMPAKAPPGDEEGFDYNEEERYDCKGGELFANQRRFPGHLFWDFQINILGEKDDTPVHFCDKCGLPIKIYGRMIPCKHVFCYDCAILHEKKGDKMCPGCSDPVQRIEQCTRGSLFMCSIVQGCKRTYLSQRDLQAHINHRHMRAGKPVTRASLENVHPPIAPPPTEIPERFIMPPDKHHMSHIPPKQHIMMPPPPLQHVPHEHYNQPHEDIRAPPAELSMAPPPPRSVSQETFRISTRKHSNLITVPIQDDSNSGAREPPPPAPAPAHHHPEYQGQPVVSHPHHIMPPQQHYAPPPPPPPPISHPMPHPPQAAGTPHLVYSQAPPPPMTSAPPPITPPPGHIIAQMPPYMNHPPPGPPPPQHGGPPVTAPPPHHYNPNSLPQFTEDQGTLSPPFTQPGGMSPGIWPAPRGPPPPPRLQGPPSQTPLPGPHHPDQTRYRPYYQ
UniProt O60563, whole entry, looked up: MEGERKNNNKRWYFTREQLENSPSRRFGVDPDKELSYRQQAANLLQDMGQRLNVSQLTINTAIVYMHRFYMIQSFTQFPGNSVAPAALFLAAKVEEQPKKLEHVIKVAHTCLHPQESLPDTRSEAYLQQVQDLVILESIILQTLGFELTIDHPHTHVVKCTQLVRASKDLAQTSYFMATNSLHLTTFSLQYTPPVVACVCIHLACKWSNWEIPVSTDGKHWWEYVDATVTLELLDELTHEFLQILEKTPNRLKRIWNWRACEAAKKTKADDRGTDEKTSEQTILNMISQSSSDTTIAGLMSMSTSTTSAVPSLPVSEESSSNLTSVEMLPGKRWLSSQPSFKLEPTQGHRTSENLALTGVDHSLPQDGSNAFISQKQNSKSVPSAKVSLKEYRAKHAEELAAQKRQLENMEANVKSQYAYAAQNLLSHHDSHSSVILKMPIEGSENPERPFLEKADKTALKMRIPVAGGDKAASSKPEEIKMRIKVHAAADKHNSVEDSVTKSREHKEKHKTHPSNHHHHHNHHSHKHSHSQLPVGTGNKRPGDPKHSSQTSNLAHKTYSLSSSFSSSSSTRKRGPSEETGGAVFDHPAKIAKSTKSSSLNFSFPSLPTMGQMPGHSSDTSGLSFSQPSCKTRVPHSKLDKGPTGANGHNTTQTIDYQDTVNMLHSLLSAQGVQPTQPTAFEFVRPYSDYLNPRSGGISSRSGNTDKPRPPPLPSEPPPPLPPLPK
UniProt P19256, whole entry, looked up: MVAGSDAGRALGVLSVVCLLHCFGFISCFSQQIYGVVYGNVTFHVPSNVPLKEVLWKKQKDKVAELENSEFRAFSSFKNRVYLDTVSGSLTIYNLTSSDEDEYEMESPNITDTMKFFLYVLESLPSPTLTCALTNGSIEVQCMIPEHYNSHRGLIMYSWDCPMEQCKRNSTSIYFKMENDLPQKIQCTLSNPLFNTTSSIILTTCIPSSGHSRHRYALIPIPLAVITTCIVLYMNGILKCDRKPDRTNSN
UniProt Q9BV29: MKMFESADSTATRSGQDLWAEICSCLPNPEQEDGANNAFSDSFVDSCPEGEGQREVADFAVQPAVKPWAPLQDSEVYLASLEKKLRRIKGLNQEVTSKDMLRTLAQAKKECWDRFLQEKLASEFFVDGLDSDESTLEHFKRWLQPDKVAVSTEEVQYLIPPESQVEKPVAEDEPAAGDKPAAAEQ
UniProt Q8N4S0: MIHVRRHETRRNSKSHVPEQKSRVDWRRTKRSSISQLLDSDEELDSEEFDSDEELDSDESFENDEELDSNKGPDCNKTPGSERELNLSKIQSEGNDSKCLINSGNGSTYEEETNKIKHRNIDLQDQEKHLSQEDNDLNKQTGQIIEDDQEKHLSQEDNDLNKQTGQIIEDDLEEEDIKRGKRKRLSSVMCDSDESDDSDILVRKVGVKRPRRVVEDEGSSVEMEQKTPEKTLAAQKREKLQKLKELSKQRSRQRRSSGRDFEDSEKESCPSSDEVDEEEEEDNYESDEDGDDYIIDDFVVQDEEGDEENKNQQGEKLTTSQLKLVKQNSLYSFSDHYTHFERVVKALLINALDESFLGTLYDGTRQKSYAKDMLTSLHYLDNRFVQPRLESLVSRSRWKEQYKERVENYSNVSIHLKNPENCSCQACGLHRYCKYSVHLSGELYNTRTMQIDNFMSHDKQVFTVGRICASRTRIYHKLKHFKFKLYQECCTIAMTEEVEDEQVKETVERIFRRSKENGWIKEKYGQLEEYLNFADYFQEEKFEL
UniProt Q96F63: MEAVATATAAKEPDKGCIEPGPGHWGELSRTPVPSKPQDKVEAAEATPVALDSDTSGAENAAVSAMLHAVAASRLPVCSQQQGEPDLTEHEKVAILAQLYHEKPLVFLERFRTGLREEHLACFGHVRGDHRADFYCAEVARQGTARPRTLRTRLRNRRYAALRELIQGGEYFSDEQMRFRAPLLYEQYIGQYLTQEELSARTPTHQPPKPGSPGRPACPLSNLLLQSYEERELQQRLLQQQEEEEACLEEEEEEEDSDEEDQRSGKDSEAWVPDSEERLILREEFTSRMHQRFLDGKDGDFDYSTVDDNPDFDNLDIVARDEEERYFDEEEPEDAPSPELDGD
UniProt Q8N4T8: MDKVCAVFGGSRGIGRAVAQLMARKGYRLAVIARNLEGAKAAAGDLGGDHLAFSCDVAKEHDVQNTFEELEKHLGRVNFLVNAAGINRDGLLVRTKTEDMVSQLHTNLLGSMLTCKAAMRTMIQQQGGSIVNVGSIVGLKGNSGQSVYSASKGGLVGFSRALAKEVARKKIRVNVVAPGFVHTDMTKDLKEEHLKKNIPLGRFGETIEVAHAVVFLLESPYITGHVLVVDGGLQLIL
UniProt P16152: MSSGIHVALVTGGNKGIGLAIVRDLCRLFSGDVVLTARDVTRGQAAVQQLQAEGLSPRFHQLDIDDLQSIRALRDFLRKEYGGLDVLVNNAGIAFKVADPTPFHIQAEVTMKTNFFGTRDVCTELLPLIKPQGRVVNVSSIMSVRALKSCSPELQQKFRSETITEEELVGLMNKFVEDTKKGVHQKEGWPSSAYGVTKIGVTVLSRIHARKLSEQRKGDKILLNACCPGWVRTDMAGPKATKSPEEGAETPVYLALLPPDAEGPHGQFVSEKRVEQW
UniProt O75081: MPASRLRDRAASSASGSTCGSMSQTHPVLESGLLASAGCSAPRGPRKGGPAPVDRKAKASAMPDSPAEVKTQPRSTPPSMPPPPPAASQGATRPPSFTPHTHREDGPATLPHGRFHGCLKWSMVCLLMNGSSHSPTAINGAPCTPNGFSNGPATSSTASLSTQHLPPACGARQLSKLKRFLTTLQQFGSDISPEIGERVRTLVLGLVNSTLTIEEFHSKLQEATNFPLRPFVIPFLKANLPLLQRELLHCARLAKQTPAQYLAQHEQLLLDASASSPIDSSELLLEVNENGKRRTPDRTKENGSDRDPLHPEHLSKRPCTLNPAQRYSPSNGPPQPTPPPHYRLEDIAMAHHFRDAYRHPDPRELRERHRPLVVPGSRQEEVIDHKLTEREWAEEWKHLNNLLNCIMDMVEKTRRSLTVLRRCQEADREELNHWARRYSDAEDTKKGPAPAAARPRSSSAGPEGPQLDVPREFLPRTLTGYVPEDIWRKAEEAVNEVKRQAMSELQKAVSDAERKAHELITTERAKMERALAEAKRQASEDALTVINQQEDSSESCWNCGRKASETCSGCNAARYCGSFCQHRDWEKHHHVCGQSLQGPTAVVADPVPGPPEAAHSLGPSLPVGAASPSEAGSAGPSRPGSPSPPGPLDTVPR

Columns and labels:
Test in all cases: log2 fold change, soluble protein after heating vs DMSO (PISA); higher = thermal stabilisation; K562 lysate, 10 uM; active = over 0.2 and 3.5 SD of the protein, either way, in both replicates (recomputed)
[1] = compound: CN1CC[C@H](c2c(O)cc(O)c3c(=O)cc(-c4ccccc4Cl)oc23)[C@H](O)C1 [alvocidib]
Method in brief: (§1)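 Values give the log-two fold change in thermal stability against solvent controls, from duplicates. Crude K562 extract at 1 mg/mL protein, made by dounce homogenisation in PBS pH 7.4 with 1 mM MgCl2, was treated with 10 μM compound for 30 min. After 3 min heating across 48°C-58°C, aliquots were pooled, adjusted to 0.5% NP-40 at 4°C and centrifuged at 21,000xg for 90 min. The supernatant was measured by TMTpro 16plex LC-MS/MS with channel sums equalised.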

[2] = compound: CN1CCc2c(c3ccccc3n2Cc2ccc(C(=O)NO)cc2)C1 [Tubastatin A]
Method in brief: as §1

[3] = compound: CNC(=O)C1=CC=CC=C1NC2=NC(=NC=C2Cl)NC3=C(C=C(C=C3)N4CCOCC4)OC
Method in brief: as §1

[4] = compound: CNC(=O)c1ccc(Nc2ncc(C(F)(F)F)c(NCc3nccnc3N(C)S(C)(=O)=O)n2)cc1 [defactinib]
Method in brief: as §1

[5] = compound: CNc1nc(-c2ccc3c(N)n[nH]c3c2)cc(N2C[C@@H](C(=O)NC3CCCCC3)CC[C@H]2C)n1
Method in brief: as §1

[6] = compound: COC(=O)N[C@@H](C)CNc1nccc(-c2cn(C(C)C)nc2-c2cc(Cl)cc(NS(C)(=O)=O)c2F)n1 [encorafenib]
Method in brief: as §1

[7] = compound: COC(=O)[C@H](CCSC)NC(=O)C1=C(C=C(C=C1)NC[C@H](CS)N)C2=CC=CC=C2
Method in brief: as §1

[8] = compound: COc1cc(Nc2ncc3c(n2)-c2ccc(Cl)cc2C(c2c(F)cccc2OC)=NC3)ccc1C(=O)O [alisertib]
Method in brief: as §1

[9] = compound: COc1cc2nc(-c3cc(F)ccc3O)nc(N[C@@H]3CNC[C@H]3C(C)(C)O)c2cc1OC
Method in brief: as §1

[10] = compound: COc1cc2ncnc(Nc3ccc(F)c(Cl)c3)c2cc1OCCCN1CCOCC1 [gefitinib]
Method in brief: as §1

| Target | log2 fold change [1] | log2 fold change [2] | log2 fold change [3] | log2 fold change [4] | log2 fold change [5] | log2 fold change [6] | log2 fold change [7] | log2 fold change [8] | log2 fold change [9] | log2 fold change [10] |
| --- | --- | --- | --- | --- | --- | --- | --- | --- | --- | --- |
| CARNMT1 (UniProt Q8N4J0) | inactive: -0.167 | inactive: 0.045 | inactive: -0.021 | inactive: -0.03 | inactive: -0.021 | inactive: 0.051 | inactive: 0.015 | inactive: -0.022 | inactive: 0.026 | inactive: 0.009 |
| CCDC174 (UniProt Q6PII3) | inactive: -0.037 | inactive: 0.012 | inactive: -0.006 | inactive: 0.031 | inactive: -0.005 | inactive: 0.022 | inactive: -0.05 | inactive: -0.028 | inactive: -0.047 | inactive: -0.008 |
| CBFA2T2 isoform 4 (UniProt O43439) | inactive: 0.003 | inactive: -0.146 | inactive: 0.061 | inactive: -0.124 | inactive: 0.236 | inactive: 0.091 | inactive: 0.172 | inactive: -0.089 | inactive: -0.09 | inactive: -0.066 |
| CCT7 (UniProt Q99832) | inactive: 0.018 | inactive: 0.038 | inactive: -0.014 | inactive: -0.005 | inactive: 0.017 | inactive: -0.019 | inactive: -0.016 | inactive: 0.001 | inactive: 0 | inactive: -0.011 |
| CCDC28A (UniProt Q8IWP9) | inactive: -0.007 | inactive: 0.039 | inactive: 0.01 | inactive: 0.061 | inactive: 0.018 | inactive: 0.051 | inactive: -0.048 | inactive: -0.026 | inactive: -0.007 | inactive: 0 |
| CCNC (UniProt P24863) | inactive: 0.182 | inactive: -0.079 | inactive: -0.018 | inactive: -0.073 | inactive: -0.052 | inactive: 0.041 | inactive: 0.039 | inactive: 0.009 | inactive: -0.05 | inactive: 0.017 |
| CCSMST1 (UniProt Q4G0I0) | inactive: 0.015 | inactive: 0.049 | inactive: 0.034 | inactive: 0.018 | inactive: -0.043 | inactive: 0.027 | inactive: 0.031 | inactive: -0.042 | inactive: -0.022 | inactive: -0.273 |
| CCDC12 (UniProt Q8WUD4) | inactive: -0.012 | inactive: 0.092 | inactive: -0.016 | inactive: -0.013 | inactive: -0.018 | inactive: -0.054 | inactive: -0.047 | inactive: -0.009 | inactive: 0.01 | inactive: -0.003 |
| CASP9 (UniProt P55211) | inactive: -0.01 | inactive: -0.043 | inactive: -0.021 | inactive: 0.039 | inactive: -0.014 | inactive: 0.023 | inactive: -0.077 | inactive: 0.014 | inactive: 0.017 | inactive: 0.052 |
| CCT4 (UniProt P50991) | inactive: 0.046 | inactive: 0.005 | inactive: -0.019 | inactive: 0.001 | inactive: -0.009 | inactive: 0.004 | inactive: -0.012 | inactive: -0.014 | inactive: -0.01 | inactive: -0.023 |
| CCPG1 isoform 5 (UniProt Q9ULG6) | inactive: 0.029 | inactive: 0.006 | inactive: 0.028 | inactive: -0.03 | inactive: -0.02 | inactive: 0.049 | inactive: -0.165 | inactive: -0.073 | active: 0.303 | inactive: -0.061 |
| CCDC93 (UniProt Q567U6) | inactive: -0.051 | inactive: -0.052 | inactive: 0.008 | inactive: 0.002 | inactive: -0.017 | inactive: 0.025 | inactive: 0.013 | inactive: 0.081 | inactive: 0 | inactive: -0.015 |
| CBLL1 (UniProt Q75N03) | inactive: 0.029 | inactive: -0.005 | inactive: 0.036 | inactive: 0.047 | inactive: 0.029 | inactive: -0.036 | inactive: 0.016 | inactive: 0.075 | inactive: 0.034 | inactive: -0.093 |
| CCNT1 (UniProt O60563) | inactive: 0.026 | inactive: -0.032 | inactive: -0.045 | inactive: -0.016 | inactive: 0.127 | inactive: 0.012 | inactive: -0.005 | inactive: 0.046 | inactive: 0.095 | inactive: 0.012 |
| CCDC137 (UniProt Q6PK04) | inactive: -0.039 | inactive: 0.016 | inactive: -0.017 | inactive: 0.057 | inactive: 0.005 | inactive: 0.051 | inactive: 0.053 | inactive: -0.076 | inactive: -0.023 | inactive: -0.108 |
| CD58 (UniProt P19256) | inactive: -0.041 | inactive: -0.011 | inactive: 0.008 | inactive: 0.038 | inactive: 0.043 | inactive: 0.013 | inactive: -0.076 | inactive: 0.028 | inactive: 0.002 | inactive: -0.032 |
| CCDC117 (UniProt Q8IWD4) | inactive: 0.004 | inactive: 0.047 | inactive: -0.015 | inactive: -0.028 | inactive: 0.056 | inactive: -0.015 | inactive: -0.04 | inactive: 0.013 | inactive: -0.029 | inactive: -0.028 |
| CAT (UniProt P04040) | inactive: -0.011 | inactive: 0.083 | inactive: -0.011 | inactive: -0.014 | inactive: 0.034 | inactive: -0.023 | inactive: -0.011 | inactive: -0.001 | inactive: 0.021 | inactive: -0.014 |
| CD81 (UniProt P60033) | inactive: -0.022 | inactive: 0.024 | inactive: -0.034 | inactive: -0.088 | inactive: -0.097 | inactive: 0.108 | inactive: -0.097 | inactive: -0.025 | inactive: -0.002 | inactive: 0.112 |
| CCDC32 isoform 2 (UniProt Q9BV29) | inactive: -0.102 | inactive: -0.033 | inactive: -0.061 | inactive: 0.095 | inactive: 0.04 | inactive: 0.055 | inactive: -0.065 | inactive: -0.098 | inactive: -0.045 | inactive: -0.026 |
| CCDC82 (UniProt Q8N4S0) | inactive: 0.012 | inactive: 0.024 | inactive: 0.186 | inactive: 0.016 | inactive: -0.11 | inactive: -0.008 | inactive: -0.035 | inactive: 0.064 | inactive: -0.013 | inactive: 0.044 |
| CCT8 (UniProt P50990) | inactive: 0.018 | inactive: 0.022 | inactive: -0.03 | inactive: -0.021 | inactive: 0.011 | inactive: -0.009 | inactive: -0.01 | inactive: 0.007 | inactive: -0.007 | inactive: -0.026 |
| CD63 (UniProt P08962) | inactive: -0.184 | inactive: 0.023 | inactive: -0.013 | inactive: 0.089 | inactive: -0.101 | inactive: 0.046 | inactive: -0.055 | inactive: 0.01 | inactive: -0.02 | inactive: -0.023 |
| CCT3 (UniProt P49368) | inactive: 0.015 | inactive: 0.042 | inactive: -0.026 | inactive: -0.016 | inactive: 0.013 | inactive: -0.006 | inactive: -0.014 | inactive: 0.007 | inactive: 0 | inactive: -0.016 |
| CCDC97 (UniProt Q96F63) | inactive: 0.003 | inactive: 0.01 | inactive: 0.042 | inactive: -0.017 | inactive: 0.003 | inactive: 0.018 | inactive: -0.016 | inactive: -0.017 | inactive: 0.034 | inactive: -0.01 |
| CBR4 (UniProt Q8N4T8) | inactive: 0.013 | inactive: 0.036 | inactive: -0.065 | inactive: -0.016 | inactive: 0.048 | inactive: 0.033 | inactive: -0.056 | inactive: 0.064 | inactive: -0.014 | inactive: 0.012 |
| CBR1 (UniProt P16152) | inactive: -0.013 | inactive: 0.015 | inactive: -0.006 | inactive: 0.008 | inactive: -0.041 | inactive: 0 | inactive: 0.02 | inactive: -0.024 | inactive: 0.023 | inactive: -0.068 |
| CCDC186 (UniProt Q7Z3E2) | inactive: 0.056 | inactive: 0.004 | inactive: 0.062 | inactive: -0.012 | inactive: -0.029 | inactive: 0.067 | inactive: -0.004 | inactive: 0.015 | inactive: 0.004 | inactive: 0.055 |
| CBFA2T3 (UniProt O75081) | inactive: -0.039 | inactive: -0.131 | inactive: 0.028 | inactive: 0.004 | inactive: 0.051 | inactive: 0.056 | inactive: 0.037 | inactive: 0.031 | inactive: -0.042 | inactive: 0.018 |

Single entries from the list:
log2 fold change [4], CBLL1 (UniProt Q75N03) is entered as inactive: 0.047
log2 fold change [3], CCNC (UniProt P24863) is entered as inactive: -0.018

Record cards, from the list above. Values in the order: log2 fold change [1]	log2 fold change [2]	log2 fold change [3]	log2 fold change [4]	log2 fold change [5]	log2 fold change [6]	log2 fold change [7]	log2 fold change [8]	log2 fold change [9]	log2 fold change [10]
CBR4 (UniProt Q8N4T8) is entered as inactive: 0.013	inactive: 0.036	inactive: -0.065	inactive: -0.016	inactive: 0.048	inactive: 0.033	inactive: -0.056	inactive: 0.064	inactive: -0.014	inactive: 0.012
CCDC174 (UniProt Q6PII3) is entered as inactive: -0.037	inactive: 0.012	inactive: -0.006	inactive: 0.031	inactive: -0.005	inactive: 0.022	inactive: -0.05	inactive: -0.028	inactive: -0.047	inactive: -0.008
